# The campaign covered roughly 340,000 compounds. About 170 (0.05%) were called active. Inconclusive results, whose numbers are uncertain, are shown with a selection of clear calls. Calls follow the shape of the dose curve; as a rule, active = well fitted inhibition curve with a large enough effect in the signal ratio, with a control signal flat (not every such curve was filed as active); inconclusive = small, poorly fitted or top-dose-only effect, or effect the other way, or a change in a side signal; inactive = flat fitted curve, though single readings scatter; the % refers to the signal ratio. Where the call is inconclusive, the potency comes from a doubtful curve fit.
# Test: qHTS Assay to Find Inhibitors of Chronic Active B-Cell Receptor Signaling;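 as to activity change, negative = inhibition: plate controls were basal doxycycline-induced cells for no effect and cells given 10 µM MG132 for full effect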
# Conditions: ABC-DLBCL IkBa-CBG/CBR reporter, luminescence ratio (green luciferase fused to IkBa over red control in TMD8 lymphoma cells), 4 h; activity change, negative = inhibition: at 46.1 µM (top of the series)
# Outline: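 Doxycycline induced both beetle luciferases in TMD8 lymphoma cells; IKK-driven degradation limits the IkappaBalpha-fused green signal, while red luminescence normalises for cell number and nonspecific effects. Compounds tested up to 46 uM, 4 hrs.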
# Potency is read from the fitted curve at half-maximal effect.
SMILES,"activity change, negative = inhibition",Potency
CN=c1scc(C)n1/N=C/c1ccc(O)c(O)c1O,inconclusive: 7.26%,
Cc1ccc(C)c(S(=O)(=O)N2CCCOC2CNC(=O)C(=O)NCc2ccccn2)c1 (configuration not stated),inactive: -0.874%,
Cc1ccc(C)c(S(=O)(=O)Nc2cc3c4c(c2)CCN4C(=O)CC3)c1,,"inconclusive: 25.9 µM [falling, partial curve, poor fit]"
O=C(Nc1ccc(Br)cc1)N1CCc2ccccc2C1,inconclusive: -11.6%,
COc1ccccc1C(=O)Nc1cccnc1,inconclusive: -4.71%,
COc1ccc(/C=N/OCc2ccc(Br)cc2)c(OC)c1,inconclusive: 6.99%,
C=CCn1c(SCC(=O)N2CCOCC2)nnc1C(C)NC(=O)c1ccccc1 (configuration not stated),inconclusive: 0.14%,
COc1ccc(S(=O)(=O)N2CCOC23CCN(C(=O)c2ccccc2OC)CC3)cc1,inactive: -3.05%,
Cc1ccc(Cl)c(OCC(=O)Nc2cc(S(=O)(=O)N3CCOCC3)ccc2N2CCCC2)c1,inactive: 5.17%,
COc1ccc(CN(C)CC(=O)NCC(=O)Nc2c(C)cccc2C)cc1,inactive: -2.98%,
Cc1nc2ccccc2cc1C(=O)NCc1ccc(F)cc1,inconclusive: 7.19%,
CN(C)S(=O)(=O)c1ccc(N2CCCC2)c(C(=O)NCc2ccc(Cl)cc2)c1,,"inconclusive: 6.51 µM [falling, single point]"
Cc1ccccc1C(=O)Oc1ccc(-c2csnn2)cc1,inconclusive: -27%,
CC1Cc2nc(SCC(=O)Nc3ccc(F)cc3F)n(C)c(=O)c2S1 (configuration not stated),inconclusive: -0.538%,
C/C(=N\NC(=O)c1nnn(-c2nonc2N)c1-c1ccc2c(c1)OCO2)c1ccccc1,inactive: -0.246%,
Cc1ccc(S(=O)(=O)Nc2ccncc2)c(C)c1N(C)S(=O)(=O)c1ccc(Cl)cc1,inconclusive: 3.2%,
CCc1ccc(OCC(=O)Nc2nnc(-c3ccco3)s2)cc1,inconclusive: 7.98%,
CN(C)c1ccc(N=Nc2cccc(F)c2)cc1,inconclusive: -4.34%,
O=C(CCN1C(=O)/C(=C/c2ccccc2)SC1=S)N1CCCCCC1,inactive: -7.73%,
O=C(Nc1ccc(Cn2cccn2)cc1)c1ccc(COc2ccccc2Br)cc1,,"inconclusive: 10 µM [falling, partial curve]"
COc1ccc(Nc2nc(-c3ccccc3)nc3ccccc23)c(OC)c1,inconclusive: 2.91%,

SMILES,"activity change, negative = inhibition",Potency
O=C(Nc1ccc(C(=O)N2CCN(c3ccc(Cl)cc3)CC2)cc1)C1=CSCCO1,inactive: 1.14%,
CC(C)c1ccc(C(O)Cc2nc3ccccc3n2C)cc1 (configuration not stated),inconclusive: 7.2%,
c1ccc(CSc2nnc(-c3ccccn3)n2-c2ccccc2)cc1,,"inconclusive: 23.1 µM [falling, single point]"
C=CCn1c(CNc2ccc(C)cc2)nnc1SCC(=O)N/N=C/c1ccc(O)cc1O,inconclusive: -12.5%,
Cc1ccc(-n2c(=S)[nH]c3c(oc4ccccc43)c2=O)cc1,,"inconclusive: 29.1 µM [falling, single point]"
COc1ccc(C(=O)COC(=O)c2cc(=O)c3ccccc3o2)cc1,inactive: -0.154%,
CCOC(=O)C(C(=O)OCC)C1N=C(N)N=C2Oc3ccccc3N21 (configuration not stated),,"inconclusive: 5.8 µM [rising, full curve, poor fit]"
COC(=O)c1ccc(NC(=O)COc2ccc(N(C)S(=O)(=O)c3ccc(C)cc3)cc2)cc1,inactive: 0.926%,
O=C(Nc1ccc2oc(=O)ccc2c1)c1cc2ccccc2o1,,"inconclusive: 13 µM [falling, partial curve]"
CCOC(=O)c1c(C)[nH]c(C)c1C(=O)CN1C(=O)NC2(CCCCCC2)C1=O,inconclusive: -15.1%,
CC(=O)c1ccc(S(=O)(=O)NCCCC(=O)N(C)Cc2ccc3c(c2)OCO3)cc1,inactive: -0.315%,
Cc1ccc(Cn2nnc3c(=O)[nH]c(C4CCN(C(=O)c5cccs5)CC4)nc32)cc1,inconclusive: -2.3%,
Cc1ccc2c(CN(C)Cc3cccc(F)c3)cc(=O)oc2c1C,inconclusive: 1.35%,
Cn1c(=NC(=O)COc2ccccc2)sc2cccc(F)c21,inconclusive: 2.18%,
O=C(CSc1nnnn1C1CC2C=CC1C2)Nc1ccc(C(=O)O)cc1 (configuration not stated),inconclusive: -5.84%,
CC(=O)c1ccc(-c2ccc(C(=O)NC3CC(C)(C)NC(C)(C)C3)o2)cc1,inactive: -3%,
O=C(N/N=C/c1cn(Cc2cccc(F)c2)c2ccccc12)c1cc(O)cc(O)c1,,"inconclusive: 5.62 µM [falling, partial curve]"
C=CCn1c(SCc2c(C)noc2C)nc2ccccc2c1=O,,"inconclusive: 9.2 µM [falling, partial curve]"
Cc1cccc(NC(=O)[C@H](C)NC(=O)[C@@H]2Cc3ccccc3CN2C(=O)OC(C)(C)C)c1,,"inconclusive: 28.2 µM [falling, single point]"
CCC1N=C(SC)NC(C)=C1C(=O)c1ccccc1 (configuration not stated),inconclusive: 4.45%,
CC1SCC(NC(=O)c2ccc(Cl)cc2)CS1 (configuration not stated),,"inconclusive: 3.98 µM [rising, full curve, poor fit]"

# Fetched by structure from the list above, four records:
SMILES,"activity change, negative = inhibition",Potency
CC(C)c1ccc(C(O)Cc2nc3ccccc3n2C)cc1 (configuration not stated),inconclusive: 7.2%,
CCOC(=O)C(C(=O)OCC)C1N=C(N)N=C2Oc3ccccc3N21 (configuration not stated),,"inconclusive: 5.8 µM [rising, full curve, poor fit]"
Cn1c(=NC(=O)COc2ccccc2)sc2cccc(F)c21,inconclusive: 2.18%,
C=CCn1c(CNc2ccc(C)cc2)nnc1SCC(=O)N/N=C/c1ccc(O)cc1O,inconclusive: -12.5%,

# Further entries follow:

SMILES,"activity change, negative = inhibition",Potency
CCCCN(C)C(=O)c1cn(CC)c2ccc(S(=O)(=O)N(C)C)cc2c1=O,inconclusive: 10%,
Cc1cc(N/C=C\C(=O)c2ccc(Cl)c(Cl)c2)no1,inconclusive: 1.99%,
Nc1ccc(-c2nc3ccccc3o2)cc1,inconclusive: -0.258%,
CCOC(=O)C1=C(C(F)(F)F)Nc2ncnn2C1c1cc(OC)ccc1OC (configuration not stated),inconclusive: 0.601%,
O=S(=O)([N-]c1nc2ccccc2nc1-[n+]1ccccc1)c1ccc(Cl)cc1,,"inconclusive: 6.31 µM [falling, partial curve, poor fit]"
O=c1cnnc(Nc2ccc(Cl)c(C(F)(F)F)c2)[nH]1,,"inconclusive: 20 µM [falling, partial curve, poor fit]"
N#Cc1ccc(C(=O)Nn2cnnc2)cc1,inconclusive: 4.75%,
Cc1cc2nn(-c3ccccc3)nc2cc1NC(=O)c1cccs1,inactive: 0.0117%,
O=C(N/N=C/C(Br)=C/c1ccccc1)C(O)c1ccccc1 (configuration not stated),inactive: -22.6%,
COC(=O)c1ccc(C2C=C(c3ccc(Cl)cc3)Nc3nc4ccccc4n32)cc1 (configuration not stated),,"inconclusive: 5.01 µM [falling, single point]"
COCCOC(=O)C1=C(C)OC(N)=C(C#N)C1c1cc2cccc(C)c2nc1Cl (configuration not stated),,"inconclusive: 3.55 µM [cytotoxic, partial curve]"
Oc1ccc(-c2onc(C(F)(F)F)c2-c2cscn2)c(O)c1,,"inconclusive: 18.4 µM [falling, partial curve, poor fit]"
COc1ccc(C2=C/C(=C\c3ccccc3OC(C)=O)C(=O)O2)cc1,inconclusive: -0.0335%,
COc1ccccc1C(=O)NNC(=O)C(=O)NCc1ccccc1,,"inconclusive: 15.8 µM [falling, partial curve]"
CCCCc1cc(=O)oc2cc(OCC(=O)Nc3ccccn3)ccc12,inactive: -4.98%,
COc1ccc(C)cc1NC(=O)Nc1cccc(C)c1,inactive: 6.24%,
CCOC(=O)N1CCC(N(CCN(C)C)C(=S)Nc2cccc(OC)c2)CC1,inconclusive: 11.7%,
CC(/C=N/NC(=O)c1cc(-c2ccccc2)nc2ccccc12)=C\c1ccco1,inconclusive: -7.97%,
O=C1/C(=C\Nc2ccccc2)CCN1c1ncccn1,inconclusive: -20.5%,
CCn1c(CNC(=O)C(C)(C)C)nc2ccccc21,inactive: 16.5%,
CCOc1ccc(N=C2Sc3nc4ccc(C)cc4cc3CN2CCOC)cc1,inactive: 10.4%,

SMILES,"activity change, negative = inhibition",Potency
Cc1ccccc1C(=O)NC(NCC1CCCO1)C(Cl)(Cl)Cl (configuration not stated),inconclusive: -0.0543%,
COc1cc(CCC(=O)N2CCN(c3ccc(N4CCOCC4)nn3)CC2)cc(OC)c1OC,inconclusive: 9.52%,
O=c1[nH]c(CSc2ncn[nH]2)nc2ccccc12,inconclusive: 1.22%,
Cc1cc(C)n(CCc2nc3c4ccccc4nc(SCc4ccc(Cl)cc4)n3n2)n1,inactive: 19.2%,
CC1CN(C(=O)c2cccc(COc3ccc(Br)cc3)c2)CC(C)O1 (configuration not stated),inconclusive: 6%,
O=C(C1CCN(Cc2ccccc2)CC1)N1CCN(C/C=C/c2ccccc2)CC1,inconclusive: 0.417%,
COc1ccc(/C=N\NC(=O)c2ccccc2OC)cc1COc1c(F)c(F)c(F)c(F)c1F,inconclusive: 3.5%,
C=CCOC(=O)Nc1ccc(Cl)cc1NC(=O)OCC=C,inconclusive: 11.6%,
O=C(NN1C(=O)c2ccccc2NC1c1ccc([N+](=O)[O-])o1)c1ccccc1 (configuration not stated),inconclusive: -13.2%,
Cc1cccc(-c2noc(CN(C)C(=O)c3ccc4c(c3)OCO4)n2)c1,inactive: -11.8%,
O=C(NNC1=Nc2cc([N+](=O)[O-])ccc2OC1)c1ccccc1Cl,,"inconclusive: 35.5 µM [falling, single point]"
CCc1cccc(CC)c1NC(=S)NCCc1c(C)[nH]c2ccccc12,inactive: 4.21%,
CCOC(=O)C1CCCN(CC(=O)c2c[nH]c3ccc(C)cc23)C1 (configuration not stated),inconclusive: -13.9%,
CN1/C(=C\C(=O)Nc2ccc(F)cc2)C(C)(C)c2ccccc21,inconclusive: 24%,
CC(C)/C=N/NC(=O)c1cc(Br)ccc1O,,"inconclusive: 6.51 µM [rising, single point]"
O=C1CN(C(=O)c2cc3ccccc3o2)c2ccccc2N1,,"inconclusive: 29.1 µM [falling, single point]"
COc1ccccc1/C=C/CN1CCCC(CO)(Cc2cccc(Cl)c2)C1 (configuration not stated),inconclusive: 0.323%,
CNc1nc(-c2ccc3c(c2)CCN3C(=O)c2ccccc2F)c(C)s1,inactive: -2.46%,
Cc1ccc(Nc2nc(-c3ccccc3)nc3ccccc23)cc1,,"inconclusive: 14.1 µM [activator, single point]"
